No constants are given. Whether binding was seen depends on the method and setting. Blank lines part the entries; values can stand above or below the binder they belong to.
Legend:
[1] = biological target: T1, acyl carrier protein (ACP), P0A6A8; assay: AUC; sedimentation analysis (methods: sedimentation velocity, 50,000 rpm, interference optics), 0.02 M Tris pH 7.5, 0.5 M NaCl, 20 °C, no reducing agents; both purified; settings: remark: other sources report otherwise
T1 chain: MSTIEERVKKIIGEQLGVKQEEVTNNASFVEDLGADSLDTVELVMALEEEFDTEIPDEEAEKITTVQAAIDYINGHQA

[2] = biological target: MadA^N, amino-terminal GNAT domain of E. coli MadA (E. coli) (UniProt P0ADQ2); assay: SEC; gel filtration chromatography of the purified recombinant protein; both purified
[3] = biological target: MadA^N, amino-terminal GNAT domain of E. coli MadA (E. coli) (UniProt P0ADQ2); assay: AUC; sedimentation analysis (methods: sedimentation velocity, 50,000 rpm, interference optics), 0.02 M Tris pH 7.5, 0.5 M NaCl, 20 °C, no reducing agents; both purified

binding [1]: no binding
B1: acyl carrier protein (ACP), P0A6A8 1-78 (protein)
chain: T1 chain

binding [2]: no binding
binding [3]: no binding
B2: MadA^N, amino-terminal GNAT domain of E. coli MadA (domain or fragment, UniProt P0ADQ2 1-161)
chain: MSQLPGLSRETRESIAMYHLRVPQTEEELERYYQFRWEMLRKPLHQPKGSERDAWDAMAHHQMVVDEQGNLVAVGRLYINADNEASIRFMAVHPDVQDKGLGTLMAMTLESVARQEGVKRVTCSAREDAVEFFAKLGFVNQGEITTPTTTPIRHFLMIKPV

From publication PMC8666670, “Malonyl-acyl carrier protein decarboxylase activity promotes fatty acid and cell envelope biosynthesis in Proteobacteria” (The Journal of Biological Chemistry, 2021)
